Mtb heat-shock: 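Assay on Mycobacterium tuberculosis, filed only as a heat shock assay from Cornell; the read-out is not stated. The concentration is filed as 10 mM, unlikely as a test dose, so the dose is not known. Higher reads as stronger inhibition (inferred: compounds with an IC50 in retests scored well above the rest). About 69,000 compounds were tested under these conditions; 1.4% (about 930) showed 50% or more at least once.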
Mtb growth Cornell: 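Whole-cell assay for inhibitors of Mycobacterium tuberculosis growth, labelled Cornell in the record; the read-out is not stated. The concentration is filed as 10 mM, unlikely as a test dose, so the dose is not known. The record gives no direction; compounds strong in two other growth screens of this library score well above the rest, so higher reads as stronger inhibition. About 53,000 compounds were tested under these conditions; 1.7% (about 900) showed 50% or more at least once.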

Results are given as percent effect. The controls that fix the scale are not given in the record; negative values are as filed. Compounds were drawn at random from those tested, without regard to their results.

With CCN1Cc2c(C(=O)NCC3CC3)ncn2-c2ccccc2S1(=O)=O the screen gave Mtb heat-shock: -10.81%; Mtb growth Cornell: -30.78%. O=C(NCc1cc[nH]n1)NCC(O)c1ccc(F)cc1F (centres undefined) gave Mtb heat-shock: 6.494%. Result for COCCNC(=O)NC1(c2nc(C)no2)CCCCC1 was Mtb heat-shock: 3.077%; Mtb growth Cornell: 1.389%. Cc1nc(-c2cc(Cl)cc3c2OC(CN)C3)c[nH]1 (centres undefined) gave Mtb heat-shock: 52.4%; Mtb growth Cornell: -14.08%. With Cn1c(Nc2ccc(F)cc2)c(C#N)c(=O)n(C)c1=O the screen gave Mtb heat-shock: 13.79%. COc1ccc(C(=O)COc2coc(CN3CCCCC3)cc2=O)cc1 gave Mtb heat-shock: 0.4957%; Mtb growth Cornell: 22.91%.

For COc1cccc(CNc2cc(N3CCCC3CO)ncn2)n1 (centres undefined) the result was Mtb heat-shock: -10.86%. Nc1nc(Sc2cccs2)cc(N2CC[C@H](CO)[C@H](O)C2)n1 read Mtb heat-shock: -19.03%; Mtb growth Cornell: -13%. With COc1ccccc1Oc1ncccc1CNC(=O)C(C)N1CCCC1 (centres undefined) the screen gave Mtb heat-shock: -4.622%; Mtb growth Cornell: 1.311%. With C/C(=C\c1ccco1)CN(C)C(C)Cc1cc(C)ccn1 (centres undefined) the screen gave Mtb heat-shock: -21.31%. N#Cc1ccc(C(=O)N2CCC3(CC2)CC3)cc1 gave Mtb heat-shock: 11.98%; Mtb growth Cornell: -6.813%. CCNc1cc2c(nn1)CCN(C(=O)Cc1c(C)noc1C)C2 gave Mtb heat-shock: -25.92%; Mtb growth Cornell: 18.02%.

CC(C)N(C)CCCNC(=O)c1cnn(C(C)C)c1C(F)(F)F gave Mtb heat-shock: -20.94%; Mtb growth Cornell: 13.77%. CCCn1nc(-c2nc(COC)no2)ccc1=O gave Mtb heat-shock: -34.03%; Mtb growth Cornell: -23.04%. Cc1ccc(NC2CCN(C(=O)c3cc4c(s3)CCC4)CC2)nn1 gave Mtb heat-shock: -9.387%; Mtb growth Cornell: 40.27%. CC(C)CN1CCn2nc(CNc3ncnc4[nH]cnc34)cc2C1 gave Mtb heat-shock: -17.77%. With CC(C)NC(=O)C1CCN(C(C)C(=O)N2CCc3sccc3C2)CC1 (centres undefined) the screen gave Mtb heat-shock: 9.902%; Mtb growth Cornell: 8.728%. With O=C(NCCc1cnccn1)C1(N2CCCCC2)Cc2ccccc2C1 the screen gave Mtb heat-shock: -42.28%; Mtb growth Cornell: 5.216%.

Result for O=C(O)C(F)(F)F.[H][C@@]12COC[C@]1(COc1cccnc1)CN(C(=O)COC1CCCC1)C2 was Mtb heat-shock: -1.525%; Mtb growth Cornell: 1.457%. Cc1ncc(CN2CCCC2c2ccc(C(=O)NCc3ccoc3)s2)s1 (centres undefined) gave Mtb heat-shock: 17.22%. With COCCCNC(=O)CN1CCSC(c2ccccc2)C1 (centres undefined) the screen gave Mtb heat-shock: -11.93%; Mtb growth Cornell: 36.16%. For Cc1cnc(CN(C)C2CCN(Cc3sc(C)nc3C)C2)o1 (centres undefined) the result was Mtb heat-shock: -30.19%; Mtb growth Cornell: -24.44%. For Cc1c(NC(=O)NC2CCCC2)cccc1C(=O)N1CCSCC1 the result was Mtb heat-shock: -3.246%. For Cc1scc(C(=O)N2CCC3(CCCN(C)C3=O)C2)c1-c1ccccc1 (centres undefined) the result was Mtb heat-shock: 6.792%.

For CC(C)N1CCCCC1CCn1cnc2cc(C(F)(F)F)ccc2c1=O (centres undefined) the result was Mtb heat-shock: -0.4342%; Mtb growth Cornell: 27.1%. CC(C)CNC(=O)c1ccc2nnc(C3CCN(S(C)(=O)=O)C3)n2c1 (centres undefined) read Mtb heat-shock: 2.894%; Mtb growth Cornell: -0.3182%. O=C(CCc1cccs1)N1CCCC(N2CCNC2=O)C1 (centres undefined) gave Mtb heat-shock: 8.874%. CC(C)c1nnsc1CNC(=O)C1CCN(C(C)C)CC1 read Mtb heat-shock: -23.65%; Mtb growth Cornell: -3.148%. COc1ccc(-n2cc(CCO)cn2)cc1C read Mtb heat-shock: 24.65%; Mtb growth Cornell: 105.1%. Cc1csc(N2CCN(C(=O)c3c(C)oc(C)c3C)CC2)n1 gave Mtb heat-shock: -12.8%; Mtb growth Cornell: 16.26%.

For CNC(=O)c1cccnc1N1CCC(OCc2ccccc2)CC1 the result was Mtb heat-shock: -3%; Mtb growth Cornell: -2.97%. CCN1CC(C(=O)N2CCC(Oc3ccccc3C)CC2)CC1=O (centres undefined) gave Mtb heat-shock: -26.45%; Mtb growth Cornell: 48.06%. With Cc1nc(C2CCCN2Cc2ccon2)no1 (centres undefined) the screen gave Mtb heat-shock: -12.56%. Result for COc1ccc(CNC(=O)N2CCC(Cc3cnn(C)c3)C2)cc1C (centres undefined) was Mtb heat-shock: 23.12%; Mtb growth Cornell: -13.83%. With CN1C(=O)CCCC12CCCN(C(=O)c1ccc3c(c1)OCO3)C2 (centres undefined) the screen gave Mtb heat-shock: -1.013%; Mtb growth Cornell: 18.31%. Result for CC(C(=O)N1CCCN(Cc2cnn(C(C)C)c2)CC1)n1ccnc1 (centres undefined) was Mtb heat-shock: -29.58%; Mtb growth Cornell: -30.69%.

With Cc1cc(O)cc(=O)n1CCCC(=O)Nc1n[nH]c2cc(Br)ccc12 the screen gave Mtb heat-shock: 6.501%; Mtb growth Cornell: 104.6%. CCNC(=O)c1cc(OC)c(OC)cc1N(C)S(C)(=O)=O gave Mtb heat-shock: -12.55%; Mtb growth Cornell: 8.508%. With Cc1cc(C)n(C2CCCN(C(=O)CCOc3ccccc3F)C2)n1 (centres undefined) the screen gave Mtb heat-shock: -12.2%. Cc1nnc2n1CCN(C(=O)CN1C(=O)CSc3ccccc31)C2 gave Mtb heat-shock: 20.17%; Mtb growth Cornell: 4.316%. With Cc1nn(C)c(C)c1C1COCCN1C(=O)CC(C)(C)C (centres undefined) the screen gave Mtb heat-shock: -8.588%; Mtb growth Cornell: -8.433%. CC(NCc1cccnc1)c1cc2c(cc1Br)OCCO2 (centres undefined) gave Mtb heat-shock: 17.63%; Mtb growth Cornell: 26.53%.

CNC(=O)CN1CCC(NC(=O)Cn2cc(C)c3ccccc32)CC1 gave Mtb heat-shock: -16.15%; Mtb growth Cornell: -18.17%. Cc1[nH]ccc1C(=O)N1CCN(C)C2(CCC(=O)N(C)CC2)C1 (centres undefined) read Mtb heat-shock: 12.66%. With Cc1ccc(CN2CCC3(CCN(S(=O)(=O)c4ccccc4)C3)C2)o1 (centres undefined) the screen gave Mtb heat-shock: -14.21%. For COc1ccccc1OCCN1CCCC(c2noc(C3CC3)n2)C1 (centres undefined) the result was Mtb heat-shock: 7.926%; Mtb growth Cornell: 17.36%. [H][C@@]12CS(=O)(=O)C[C@]1([H])N(C(=O)c1cc(C)n[nH]1)CCN2CC=C(C)C read Mtb heat-shock: 11.18%; Mtb growth Cornell: 36.36%. Result for CN(C)S(=O)(=O)N1CC[C@]2(C[C@@H](Oc3ncccc3F)CO2)C1.O=C(O)C(F)(F)F was Mtb heat-shock: 7.547%; Mtb growth Cornell: 24.47%.

The last 3 entries again:

Compound,Mtb heat-shock,Mtb growth Cornell
COc1ccccc1OCCN1CCCC(c2noc(C3CC3)n2)C1 (centres undefined),7.926%,17.36%
[H][C@@]12CS(=O)(=O)C[C@]1([H])N(C(=O)c1cc(C)n[nH]1)CCN2CC=C(C)C,11.18%,36.36%
CN(C)S(=O)(=O)N1CC[C@]2(C[C@@H](Oc3ncccc3F)CO2)C1.O=C(O)C(F)(F)F,7.547%,24.47%

Data taken from ChEMBL document CHEMBL3988442, “University of Dundee, Small-Polar-MMV Screening Library” (2021).